Data as given in patent publication US20220098314A1.
No constants are given. Whether binding was seen depends on the method and setting. Some entries that bind do so weakly or less than the wild type. Values belong to the binder of their own block, whether it stands above or below them.

By UniProt entry, the sequences of proteins in these tests, tags left out. Residues count along the entry.
UniProt Q9Y5U5, residues 26-241: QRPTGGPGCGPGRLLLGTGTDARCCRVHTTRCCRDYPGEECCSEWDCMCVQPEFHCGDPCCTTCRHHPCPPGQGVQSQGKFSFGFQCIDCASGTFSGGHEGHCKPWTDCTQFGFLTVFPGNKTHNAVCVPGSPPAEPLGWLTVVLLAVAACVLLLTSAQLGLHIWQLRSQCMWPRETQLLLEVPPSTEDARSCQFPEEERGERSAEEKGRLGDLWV

Biological target: GITR expressed on cells (GITR(+) CHO cells; NF-kB-luc2P/GITR Jurkat cells) (UniProt Q9Y5U5)
Assay: flow cytometry competition with a constant concentration of GITR ligand

- binding: binds
B1: anti-GITR E1-3H7 IgG4 (antibody, V domains shown)
VH: QVQLVQSGGGLVQPGGSLRLSCAASGFTFSSHAMSWVRQAPGKGLEWVSAISGSGGSTYYADSVKGRFTISRDNSKNTLYLQMNSLRAEDTAVYYCAKIGTADAFDIWGQGTTVTVSS
VL: QSALTQPPSVSGTPGQRVTISCSGGVPNIGSNPVNWYLHRPGTAPKLLIYNSNQWPSGVPDRFSGSRSGTSASLAISGLQSEDEADYYCAAWDDSLDGLVFGGGTKLTVL

- binding: binds
B2: anti-GITR TT1-3C6 IgG4 (antibody, V domains shown)
VH: EVQLVQSGGGLVQPGGSLRLSCAASGFTFSSYAMSWVRQAPGKGLEWVSAISGSGGSTYYADSVKGRFTISRDNSKNTLYLQMNSLRADDTAVYYCARRGFMDVWGKGTLVTVSS
VL: SSELTQDPAVSVALGQTVTITCQGDILEAYYASWYQQRPGQAPVLVIYGENNRPSGIPDRFSGSRSGNTASLTITGAQAEDEADYYCNSRDSSGSHVVFGGGTKMTVL
